Data reported in PubChem BioAssay AID504834 (National Center for Advancing Translational Sciences (NCATS), 2011).
Screen size: about 320,000 compounds; about 22,000 (6.9%) were called active. Inconclusive means that the source gave no clear call. Such entries were picked first, then a sample of the others. Calls follow the shape of the dose curve; as a rule, active = well fitted inhibition curve with a large enough effect; inconclusive = small, poorly fitted or top-dose-only effect, or another doubt; inactive = no such curve, though single readings can be large or run the other way. Where the call is inconclusive, the potency comes from a doubtful curve fit.

Assay: Primary qHTS for delayed death inhibitors of the malarial parasite plastid, 96 hour incubation
Settings: P. falciparum luciferase reporter growth; series mostly up to 28.7 µM; activity change, negative = inhibition: at the top concentration
Summary of the method: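 P. falciparum expressing integrated firefly luciferase, in erythrocytes at 2% hematocrit, 0.05% parasitemia, incubated with compounds 96 h at 37 C, 5% CO2. Growth inhibition read as loss of luminescence; two-generation exposure targets delayed-death apicoplast inhibitors.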
% is scaled to controls: 0 for no effect and ±100 for the full control effect; potency is read from the fitted curve at half-maximal effect.

Q: Which Potency does the source give for `CCc1nnc(NC(=O)CSc2nnc(-c3ccccc3O)n2CC)s1` here?
A: inconclusive: 10.4 µM [inhibitor, single point]

Q: With `O=C(CN1CCN(S(=O)(=O)c2ccccc2F)CC1)Nc1ccccc1C(=O)c1ccccc1` as the compound, how does the Potency read?
A: inconclusive: 1.65 µM [inhibitor, full curve]

Q: For `O=S(=O)(NCCc1csc(-c2cccnc2)n1)c1ccc(Cl)s1`, which Potency is on record?
A: inconclusive: 9.28 µM [inhibitor, single point]

Q: For `COc1ccc(S(=O)(=O)N2CCCCCC2)cc1C(=O)N(C)CCOc1ccc(Cl)cc1`, which Potency is on record?
A: inconclusive: 10.4 µM [inhibitor, single point]

Q: With `O=C(N/N=C/c1ccc[nH]1)c1ccc([N+](=O)[O-])cc1` as the compound, how does the Potency read?
A: inconclusive: 18.5 µM [inhibitor, single point]

Q: With `CCc1ccc(N(CC(=O)Nc2nc3ccc(C)cc3s2)S(=O)(=O)c2c(C)noc2C)cc1` as the compound, how does the Potency read?
A: inconclusive: 13.1 µM [inhibitor, single point]

Q: Which Potency does the source give for `O=C(O)CN1C(=O)/C(=C\c2cc([N+](=O)[O-])ccc2OCc2ccccc2Cl)SC1=S` here?
A: inconclusive: 11.7 µM [inhibitor, single point]

Q: With `CCC(=O)Nc1ccc2nc3c(=O)[nH]c(=S)[nH]c3nc2c1` as the compound, how does the Potency read?
A: inconclusive: 18.5 µM [inhibitor, single point]

Q: For `CC[C@H](C)[C@@H](C(=O)NCCCCCCCCCCC(=O)N1CCN(C(=O)OC(C)(C)C)CC1)n1cc(CCCCCNC(=O)OC(C)(C)C)nn1`, which Potency is on record?
A: active: 1.04 µM

Q: For `O=C(NCC(c1ccco1)N1CCCCC1)c1ccc(S(=O)(=O)Nc2ccccc2)cc1` (stereo not given), which Potency is on record?
A: inconclusive: 18.5 µM [inhibitor, single point]

Q: With `CCCCCCCN1C/C=C\C(c2ccc(OC)cc2)N(Cc2ccc(F)cc2)C(=O)[C@H]1Cc1ccccc1` (stereo not given in full) as the compound, how does the Potency read?
A: inconclusive: 18.5 µM [inhibitor, partial curve, poor fit]

Q: For `O=C(NCC1CCCO1)C1CCC(=O)N1Cc1ccccc1Cl` (stereo not given), which Potency is on record?
A: inconclusive: 0.0052 µM [inhibitor, full curve, poor fit]

Q: For `CCCNS(=O)(=O)c1ccc(OCC(=O)NCCC2=CCCCC2)cc1`, which Potency is on record?
A: inconclusive: 11.7 µM [inhibitor, single point]

Q: For `COc1ccc(-c2cc3ccc(OCc4nn[nH]n4)cc3oc2=O)cc1OC`, which “activity change, negative = inhibition” value is on record?
A: inactive: 16.3%

Q: Which Potency does the source give for `Cc1ccccc1NC(=O)NC1CCS(=O)(=O)C1` (stereo not given) here?
A: inconclusive: 10.4 µM [inhibitor, single point]

Q: For `COc1ccc(S(=O)(=O)N2CCN(CCC(=O)Nc3ccc(F)cc3)CC2)cc1`, which Potency is on record?
A: inconclusive: 13.1 µM [inhibitor, partial curve, poor fit]

Q: With `CCC(=O)Nc1ccc(NC(=O)CSc2nnc(C(C)C)n2C)cc1` as the compound, how does the Potency read?
A: inconclusive: 18.5 µM [inhibitor, single point]

Q: Which Potency does the source give for `Cc1ccccc1Cn1c(=O)n(-c2ccccc2)c(=O)c2ccc(C(=O)NCc3ccco3)cc21` here?
A: active: 8.28 µM

Q: For `CCCC(NC(=O)c1ccccc1)c1nc2ccccc2n1Cc1ccc(C(=O)OC)o1` (stereo not given), which Potency is on record?
A: active: 8.28 µM

Q: With `CCOC(=O)CSc1nnc(CNC(=O)c2ccccc2OC)n1-c1ccc(OC)cc1` as the compound, how does the Potency read?
A: inconclusive: 3.29 µM [inhibitor, partial curve]

Q: Which “activity change, negative = inhibition” value does the source give for `CSc1ccc(S(=O)(=O)NCc2ccc(Cl)cc2Cl)cc1` here?
A: inactive: 52.8%

Q: Which Potency does the source give for `CC1=CC(C)(C)N(C(=O)c2ccccc2)c2ccc(C)cc21` here?
A: inconclusive: 0.0104 µM [inhibitor, full curve, poor fit]

Q: For `CC1(C)CC(CCNC(=O)c2ccc(-n3cnnn3)cc2)CC(C)(C)N1`, which Potency is on record?
A: inconclusive: 1.31 µM [inhibitor, partial curve, poor fit]

Q: With `CCCC1(CCC)NC(=O)N(CC(=O)c2cc(C)n(-c3ccc4c(c3)OCO4)c2C)C1=O` as the compound, how does the Potency read?
A: inconclusive: 18.5 µM [inhibitor, single point]

Q: For `O=C(NCCc1ccc(F)cc1)c1ccc([N+](=O)[O-])cc1`, which “activity change, negative = inhibition” value is on record?
A: inactive: 13.7%

Q: Which Potency does the source give for `CN1CCN(S(=O)(=O)c2cccc(C(=O)N(C)Cc3cccs3)c2)CC1` here?
A: inconclusive: 18.5 µM [inhibitor, single point]

Q: With `CCN(CC)c1ccc(/C=N/N2CCN(Cc3cccc4ccccc34)CC2)c(O)c1` as the compound, how does the Potency read?
A: inconclusive: 18.5 µM [inhibitor, single point]

Q: For `CCCc1nc(N2CCN(C)CC2)c2sc(=S)n(-c3ccccc3)c2n1`, which Potency is on record?
A: inconclusive: 18.5 µM [inhibitor, single point]

Q: With `COc1ccc(OC)c(Nc2nc(NCCO)c3ccccc3n2)c1` as the compound, how does the Potency read?
A: inconclusive: 13.1 µM [inhibitor, single point]

Q: For `Cc1ccc(C)c(N2CCN(C3CCCC(C)C3)CC2)c1` (stereo not given), which Potency is on record?
A: inconclusive: 18.5 µM [inhibitor, single point]

Q: With `CC(=O)N1CCOCCOCCN(C(C)=O)CCOCCOCC1` as the compound, how does the “activity change, negative = inhibition” value read?
A: inactive: 19.9%

Q: For `CC(C)Cn1cnc2c1c(=O)[nH]c(=O)n2Cc1ccccc1`, which Potency is on record?
A: inconclusive: 2.08 µM [inhibitor, full curve]

Q: With `Cc1ccc(C(=O)NCCNS(=O)(=O)c2ccccc2)cn1` as the compound, how does the Potency read?
A: inconclusive: 6.57 µM [inhibitor, partial curve]

Q: For `COc1ccc(-c2ccc(-c3nc4c(c(=O)[nH]c(=O)n4Cc4ccccc4)n3C)o2)c([N+](=O)[O-])c1`, which Potency is on record?
A: inconclusive: 2.08 µM [inhibitor, full curve]

Q: Which Potency does the source give for `O=C(CSc1ncccn1)Nc1ccccc1` here?
A: inconclusive: 4.15 µM [inhibitor, single point]

Q: With `Cc1ccc2cc(CN(CC3CCCO3)S(=O)(=O)c3cccc4nsnc34)c(=O)[nH]c2c1` (stereo not given) as the compound, how does the “activity change, negative = inhibition” value read?
A: inactive: -1.21%

Q: For `O=C(c1cc2n(n1)C(C(F)(F)F)CC(c1ccc(F)cc1)N2)N1CCCC1` (stereo not given), which Potency is on record?
A: inconclusive: 4.15 µM [inhibitor, single point]

Q: For `O=S(=O)(Nc1ccccn1)c1cccc(S(=O)(=O)c2ccc(Br)cc2)c1`, which Potency is on record?
A: inconclusive: 1.47 µM [inhibitor, partial curve, poor fit]

Q: With `Cc1cccc(C(=O)NCCNC(=O)c2ccco2)c1` as the compound, how does the “activity change, negative = inhibition” value read?
A: inactive: -1.55%

Q: Which Potency does the source give for `COc1ccccc1CNC(=O)CSc1nc(N)c(C#N)c(-c2cccs2)c1C#N` here?
A: inconclusive: 1.31 µM [inhibitor, partial curve, poor fit]
